Test results: paper PMC3742671, “Structure, Antimicrobial Activities and Mode of Interaction with Membranes of Bovel Phylloseptins from the Painted-Belly Leaf Frog, Phyllomedusa sauvagii” (PLoS ONE, 2013)

Assays:
[1] = Differential scanning calorimetry on multilamellar vesicles; details: mean from six scans
[2] = as above; details: mean from six scans; for ΔTm, first of the two observed components / ΔTm, second of the two observed components: peptide/lipid 1:50; for ΔTm (Tm – Tm w/o peptide) of main phase transition: peptide/lipid 1:100

Row | Substance | ΔTm (Tm – Tm w/o peptide) of main phase transition ([1]; peptide/lipid 1:50) | ΔTm (Tm – Tm w/o peptide) of main phase transition ([1]; peptide/lipid 1:100) | ΔTm, first of the two observed components [2] | ΔTm, second of the two observed components [2] | ΔTm (Tm – Tm w/o peptide) of main phase transition [2]
1 | FLSLIPHIVSGVASIAKHF-NH2 [PLS-S1] | 0.1 °C | 0.3 °C | −1 °C | 0.6 °C | 0 °C
2 | FLSLIPHIVSGVASLAKHF-NH2 [PLS-S2] | 0.2 °C | 0.2 °C | −1.1 °C | 0.8 °C | 0 °C
3 | FLSMIPHIVSGVAALAKHL-NH2 [PLS-S4] | 0 °C | 0.1 °C | −0.1 °C | 5.1 °C | 1.1 °C

Ends that are not written are not given here.
